Experimental data from paper PMC8887485.
No constants are given. Whether binding was seen depends on the method and setting. In cells and extracts the contact can be indirect. Some binding calls cover weakened binding; strength is not graded here.

By UniProt entry, the sequences of proteins in these tests, tags left out.
UniProt Q15910: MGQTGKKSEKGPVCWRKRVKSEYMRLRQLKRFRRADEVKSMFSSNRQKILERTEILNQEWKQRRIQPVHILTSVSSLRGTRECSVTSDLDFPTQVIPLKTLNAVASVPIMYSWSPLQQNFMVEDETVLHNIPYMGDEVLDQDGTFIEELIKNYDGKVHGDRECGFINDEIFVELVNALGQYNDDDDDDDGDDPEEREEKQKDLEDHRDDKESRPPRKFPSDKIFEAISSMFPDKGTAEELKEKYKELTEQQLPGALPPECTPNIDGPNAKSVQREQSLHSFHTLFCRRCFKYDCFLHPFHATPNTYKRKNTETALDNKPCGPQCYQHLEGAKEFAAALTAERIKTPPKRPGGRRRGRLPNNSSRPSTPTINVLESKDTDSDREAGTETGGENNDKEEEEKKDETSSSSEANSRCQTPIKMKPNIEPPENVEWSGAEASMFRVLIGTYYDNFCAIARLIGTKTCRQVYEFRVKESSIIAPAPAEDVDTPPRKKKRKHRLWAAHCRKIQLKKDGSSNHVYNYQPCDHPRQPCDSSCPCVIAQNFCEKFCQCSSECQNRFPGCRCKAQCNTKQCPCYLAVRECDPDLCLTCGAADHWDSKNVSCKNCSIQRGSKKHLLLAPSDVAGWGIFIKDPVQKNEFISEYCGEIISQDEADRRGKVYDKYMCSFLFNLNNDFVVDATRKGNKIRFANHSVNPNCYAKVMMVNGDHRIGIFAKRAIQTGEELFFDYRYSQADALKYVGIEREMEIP
UniProt Q15022: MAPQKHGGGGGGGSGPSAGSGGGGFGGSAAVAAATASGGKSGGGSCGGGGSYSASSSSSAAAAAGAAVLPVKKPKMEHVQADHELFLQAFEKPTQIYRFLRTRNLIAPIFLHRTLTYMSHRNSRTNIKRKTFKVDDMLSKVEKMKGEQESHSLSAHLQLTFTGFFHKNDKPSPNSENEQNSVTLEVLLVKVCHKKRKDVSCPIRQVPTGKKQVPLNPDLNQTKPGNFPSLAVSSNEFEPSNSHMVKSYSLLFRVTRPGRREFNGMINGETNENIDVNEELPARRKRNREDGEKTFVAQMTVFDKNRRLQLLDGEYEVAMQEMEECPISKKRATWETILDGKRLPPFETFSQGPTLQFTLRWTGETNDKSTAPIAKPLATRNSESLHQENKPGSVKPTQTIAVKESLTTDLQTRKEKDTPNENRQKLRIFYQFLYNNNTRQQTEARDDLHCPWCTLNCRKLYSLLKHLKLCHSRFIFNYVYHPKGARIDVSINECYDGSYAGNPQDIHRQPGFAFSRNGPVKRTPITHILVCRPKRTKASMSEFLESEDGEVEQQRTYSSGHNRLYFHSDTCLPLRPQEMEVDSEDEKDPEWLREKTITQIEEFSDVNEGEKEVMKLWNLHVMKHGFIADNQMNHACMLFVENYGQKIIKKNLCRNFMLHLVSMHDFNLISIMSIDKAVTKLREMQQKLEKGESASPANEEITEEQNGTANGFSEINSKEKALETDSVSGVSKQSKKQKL
UniProt A6NHQ4: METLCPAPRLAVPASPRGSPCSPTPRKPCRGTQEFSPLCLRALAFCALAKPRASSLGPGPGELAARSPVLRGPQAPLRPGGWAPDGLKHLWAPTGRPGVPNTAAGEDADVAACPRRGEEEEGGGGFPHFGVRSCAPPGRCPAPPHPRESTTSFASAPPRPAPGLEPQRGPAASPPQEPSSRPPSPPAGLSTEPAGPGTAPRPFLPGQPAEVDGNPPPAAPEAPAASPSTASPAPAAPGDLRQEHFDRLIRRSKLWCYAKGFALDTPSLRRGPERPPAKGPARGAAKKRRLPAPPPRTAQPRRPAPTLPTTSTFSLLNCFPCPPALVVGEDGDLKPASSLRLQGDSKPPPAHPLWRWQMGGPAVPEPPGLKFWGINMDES
UniProt Q9Y483: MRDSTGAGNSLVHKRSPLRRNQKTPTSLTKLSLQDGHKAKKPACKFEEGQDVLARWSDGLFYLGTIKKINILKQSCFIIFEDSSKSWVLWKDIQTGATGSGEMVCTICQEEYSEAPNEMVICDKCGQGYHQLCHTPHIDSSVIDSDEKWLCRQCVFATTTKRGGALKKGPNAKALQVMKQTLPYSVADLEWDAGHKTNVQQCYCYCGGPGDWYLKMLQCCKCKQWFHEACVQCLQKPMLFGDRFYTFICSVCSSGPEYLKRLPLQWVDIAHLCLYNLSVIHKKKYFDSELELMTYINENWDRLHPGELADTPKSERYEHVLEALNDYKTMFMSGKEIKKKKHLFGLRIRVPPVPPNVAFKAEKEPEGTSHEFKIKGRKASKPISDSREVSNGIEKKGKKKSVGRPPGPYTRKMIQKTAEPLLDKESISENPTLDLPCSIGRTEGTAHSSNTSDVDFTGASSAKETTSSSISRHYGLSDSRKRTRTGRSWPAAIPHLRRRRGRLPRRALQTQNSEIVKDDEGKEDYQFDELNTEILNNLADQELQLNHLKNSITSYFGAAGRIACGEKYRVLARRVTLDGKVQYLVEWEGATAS

How the values were obtained:
[1] = target: EZH2 (human (endogenous in MCF7)) (UniProt Q15910); experiment: co-IP; antibodies against EZH2 or SUZ12 with protein A magnetic Dynabeads; nuclear extracts of MCF7-tet-on-shCTR9 cells treated with Dox for 0 day or 7 days (CTR9 knockdown); IP buffer 50 mM Tris-HCl pH 7.5, 150 mM NaCl, 2 mM MgCl2, 0.5% NP-40, 10% glycerol; western blot
[2] = target: SUZ12 (human (endogenous in MCF7)) (UniProt Q15022); experiment: as above

In the case of EPOP (from UniProt A6NHQ4 1-379), the binding [1] is reported as “binds”.

For MTF2 (from UniProt Q9Y483 1-593), the binding [2] was “binds” and the binding [1] was “binds”.

For PHF19 (from UniProt Q5T6S3 1-580), the binding [1] was “binds”.
